No constants are given. Whether binding was seen depends on the method and setting. Binding seen in cells or lysates may run through a third protein. Some entries that bind do so weakly or less than the wild type. Sequences can lack the tags named with a protein.
Tests used:
[1] = molecular target: T1, Ddb1 (S. pombe), epitope-tagged, expressed from its genomic locus (S. pombe) (UniProt O13807); assay: co-IP; S. pombe lysates in IP2 lysis buffer (100 mM NaCl, 10 mM Tris-HCl pH 7.5, 5 mM EDTA, 0.5% NP-40), anti-Myc antibody 2 h at 4 °C, Protein G DynaBeads overnight; tagged proteins from their genomic loci; untreated cells and cells after UV (500 J m^-2) or IR (80 Gy), which enhanced the interaction
T1 sequence: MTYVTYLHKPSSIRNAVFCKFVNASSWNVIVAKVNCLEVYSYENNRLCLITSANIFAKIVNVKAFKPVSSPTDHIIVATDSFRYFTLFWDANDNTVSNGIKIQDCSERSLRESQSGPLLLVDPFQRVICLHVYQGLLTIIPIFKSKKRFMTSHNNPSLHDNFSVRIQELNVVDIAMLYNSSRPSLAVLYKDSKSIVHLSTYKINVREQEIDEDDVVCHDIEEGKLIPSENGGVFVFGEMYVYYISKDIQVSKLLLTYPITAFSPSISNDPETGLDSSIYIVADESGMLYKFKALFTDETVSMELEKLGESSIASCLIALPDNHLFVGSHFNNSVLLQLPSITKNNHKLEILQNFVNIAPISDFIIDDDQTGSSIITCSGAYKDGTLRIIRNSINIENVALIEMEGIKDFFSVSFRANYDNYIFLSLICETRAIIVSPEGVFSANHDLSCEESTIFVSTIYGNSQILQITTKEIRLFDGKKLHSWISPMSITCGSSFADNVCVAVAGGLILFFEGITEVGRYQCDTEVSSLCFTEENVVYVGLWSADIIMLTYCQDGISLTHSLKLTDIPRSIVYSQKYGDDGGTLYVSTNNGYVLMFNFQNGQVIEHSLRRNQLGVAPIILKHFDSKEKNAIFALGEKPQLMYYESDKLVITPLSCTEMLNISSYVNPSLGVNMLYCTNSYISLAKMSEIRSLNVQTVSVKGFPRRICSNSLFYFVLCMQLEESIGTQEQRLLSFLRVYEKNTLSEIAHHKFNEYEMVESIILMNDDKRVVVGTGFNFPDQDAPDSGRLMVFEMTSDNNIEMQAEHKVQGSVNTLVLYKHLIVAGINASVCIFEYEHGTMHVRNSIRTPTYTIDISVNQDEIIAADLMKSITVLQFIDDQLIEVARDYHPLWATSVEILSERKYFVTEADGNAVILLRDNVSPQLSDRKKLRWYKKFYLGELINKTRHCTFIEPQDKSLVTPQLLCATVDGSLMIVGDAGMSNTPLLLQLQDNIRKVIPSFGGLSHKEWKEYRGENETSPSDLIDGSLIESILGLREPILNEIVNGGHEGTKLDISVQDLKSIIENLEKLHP

The chains behind the UniProt entries cited, without tags or fusion partners. Where a name states a change or a piece, a line headed by the entry shows the natural chain unless it says otherwise.
UniProt P04913: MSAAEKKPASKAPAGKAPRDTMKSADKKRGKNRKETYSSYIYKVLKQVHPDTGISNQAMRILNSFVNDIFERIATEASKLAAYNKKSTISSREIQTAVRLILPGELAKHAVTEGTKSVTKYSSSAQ

[2] = molecular target: T1, Ddb1 (S. pombe), epitope-tagged, expressed from its genomic locus (S. pombe); assay: co-IP; 10 ug of ethidium bromide added to pre-cleared S. pombe lysates, 10 min on ice, before immunoprecipitation with 5 ug of anti-Myc antibody (Supplementary Fig. 1e)
[3] = molecular target: Flag-tagged histone H2B (K119 wild type), S. pombe (S. pombe) (UniProt P04913); assay: co-IP; lysates of MMS-challenged S. pombe cells, treated with ethidium bromide for 10 min, precipitated by anti-Flag antibody
[4] = molecular target: T2, Rhp6-TAP (S. pombe) (S. pombe) (UniProt P23566); assay: co-IP; co-IP of Rpa1-GFP with Rhp6-TAP; method as for Figure 3f (lysates of MMS-challenged cells treated with ethidium bromide for 10 min)
T2 sequence: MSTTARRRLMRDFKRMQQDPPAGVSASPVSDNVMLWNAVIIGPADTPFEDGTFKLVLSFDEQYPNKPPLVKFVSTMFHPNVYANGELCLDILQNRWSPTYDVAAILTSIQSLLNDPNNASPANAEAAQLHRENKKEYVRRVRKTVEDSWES

B1: Wdr70 (S. pombe), epitope-tagged, expressed from its genomic locus (protein, UniProt Q9UT73 1-576)
chain: MDGTNNTIPLQFGKQAQTYDINALIARFIRPKESFLINSVEKESESKLNSKSTTLQSSDSEDWDSEENEDDITDVGVPGSHEIMFPGHSKIVTTTTFDKNGSRFYTGSLDNTIHCWDLNGLSATNPHPFKIIDPTDTNADNVGRYPVSKLSCSTKNQILALYTHSQPILYDRDGSLIVRFSKGDQYIRNMYNTKGHIAEITDGCWQPDSSQIFLTTGYDSTARIWDVNRTKSQLEVFVHVPEGSHTGLSRIPVTSCAWNPAKPDNFATAVLDGSIQFWQKGSRTKRPVMKIKDAHLPQQGISCLSFSQDGNYLLSRGEDNALRVWDLRNSNKCVNERIDILTPKAGGNAIFSPTQKLILAGSTAVNSMKAPLFVLDAMTLDTKATLFFDSKSTVTASVSAVSWNEKINQVSLGSADGNAYVLFSPNESIRGVKDAAMRPPKSKHIDDDLSSTVHINSLSGSAGTSDFGLVEETTESASAYFLEARRRRNAVRKDPKLSRQPQVGRLLEENSVDDIPLATMLNEDPREALLKYADVAKSNPMFTKMYSETQPTPIYQGVTEGDISSEEGNPSKKQKR
binding [1]: binds
binding [2]: binds

B2: EGFP-tagged Wdr70 (S. pombe), from plasmid Rep41-EGFP-Wdr70 (protein, UniProt Q9UT73 1-576)
chain: MDGTNNTIPLQFGKQAQTYDINALIARFIRPKESFLINSVEKESESKLNSKSTTLQSSDSEDWDSEENEDDITDVGVPGSHEIMFPGHSKIVTTTTFDKNGSRFYTGSLDNTIHCWDLNGLSATNPHPFKIIDPTDTNADNVGRYPVSKLSCSTKNQILALYTHSQPILYDRDGSLIVRFSKGDQYIRNMYNTKGHIAEITDGCWQPDSSQIFLTTGYDSTARIWDVNRTKSQLEVFVHVPEGSHTGLSRIPVTSCAWNPAKPDNFATAVLDGSIQFWQKGSRTKRPVMKIKDAHLPQQGISCLSFSQDGNYLLSRGEDNALRVWDLRNSNKCVNERIDILTPKAGGNAIFSPTQKLILAGSTAVNSMKAPLFVLDAMTLDTKATLFFDSKSTVTASVSAVSWNEKINQVSLGSADGNAYVLFSPNESIRGVKDAAMRPPKSKHIDDDLSSTVHINSLSGSAGTSDFGLVEETTESASAYFLEARRRRNAVRKDPKLSRQPQVGRLLEENSVDDIPLATMLNEDPREALLKYADVAKSNPMFTKMYSETQPTPIYQGVTEGDISSEEGNPSKKQKR
binding [3]: binds

B3: Rpa1-GFP (S. pombe) (protein, UniProt Q92372 1-609)
chain: MAERLSVGALRIINTSDASSFPPNPILQVLTVKELNSNPTSGAPKRYRVVLSDSINYAQSMLSTQLNHLVAENKLQKGAFVQLTQFTVNVMKERKILIVLGLNVLTELGVMDKIGNPAGLETVDALRQQQNEQNNASAPRTGISTSTNSFYGNNAAATAPAPPPMMKKPAAPNSLSTIIYPIEGLSPYQNKWTIRARVTNKSEVKHWHNQRGEGKLFSVNLLDESGEIRATGFNDQVDAFYDILQEGSVYYISRCRVNIAKKQYTNVQNEYELMFERDTEIRKAEDQTAVPVAKFSFVSLQEVGDVAKDAVIDVIGVLQNVGPVQQITSRATSRGFDKRDITIVDQTGYEMRVTLWGKTAIEFSVSEESILAFKGVKVNDFQGRSLSMLTSSTMSVDPDIQESHLLKGWYDGQGRGQEFAKHSVISSTLSTTGRSAERKNIAEVQAEHLGMSETPDYFSLKGTIVYIRKKNVSYPACPAADCNKKVFDQGGSWRCEKCNKEYDAPQYRYIITIAVGDHTGQLWLNVFDDVGKLIMHKTADELNDLQENDENAFMNCMAEACYMPYIFQCRAKQDNFKGEMRVRYTVMSINQMDWKEESKRLINFIESAQ
binding [4]: binds

Reference: article PMC4844679
